# Results deposited as PubChem BioAssay AID1259314 (Drosophila RNAi Screening Center, 2017)
# Aim: 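Modifiers of manganese chloride toxicity in fly cells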 (primary screen)
# Cell system: Drosophila S2R+ cells
# Reagents: long dsRNA against Drosophila genes
# Time to read-out: 5 days (4 days knock-down, then 1 day metal exposure)
# Treatment: manganese chloride added to 15 mM for 24 hours
# Detection: 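Cellular ATP measured by luciferase light, scaled to the plate mean, averaged across replicates and z-scored over plates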
# Scale: mean ATP z-score: higher = more ATP than the plate average, more viable cells under manganese
# Active means: 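Called active when the mean ATP z-score is above 1.5 or below -1.5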
# Calls: active = strong ATP change, up or down; inactive = no strong ATP change
# Shown is an unselected part of about 3,100 deposited reagents. Over the whole deposit, 289 (9.3%) are marked active. 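Active includes both higher and lower ATP than plate average; check the z-score sign for direction.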 Names joined by + are all predicted targets of the reagent. Not given: the amount of reagent.
gene,PubChem SID,mean ATP z-score,Outcome
CG1208,SID104191982,-0.286,inactive
CG1208,SID104217042,-0.687,inactive
CG11898,SID104206450,1.06,inactive
CG11898,SID104217109,-0.382,inactive
ppk23,SID104199902,0.212,inactive
ppk23,SID104204985,0.265,inactive
Mct1,SID104198473,0.29,inactive
Mct1,SID104207550,0.446,inactive
Sec61alpha,SID104183048,1.63,active
sdk,SID104198623,-0.246,inactive
sdk,SID104217097,0.582,inactive
Tom7,SID104184927,-0.238,inactive
Tom7,SID104186905,-0.882,inactive
CG4607,SID104198167,0.273,inactive
Ir68a,SID104190391,-0.428,inactive
Gle1,SID104186277,0.162,inactive
Gle1,SID104208504,0.684,inactive
Irk2,SID104195361,-0.409,inactive
Irk2,SID104217147,-0.0259,inactive
nebu,SID104189599,-1.1,inactive
nebu,SID104189600,-0.37,inactive
S,SID104203519,-1.01,inactive
S,SID104217059,-0.0636,inactive
bw,SID104183797,0.224,inactive
bw,SID104184469,1.16,inactive
CG2076,SID104199624,-1.74,active
CG2076,SID104205591,-1.52,active
ppk22,SID104201663,0.659,inactive
M6,SID104191661,0.314,inactive
M6,SID104217415,-1.15,inactive
CG10702,SID104181889,0.142,inactive
CG10702,SID104214424,-0.0967,inactive
CG10702,SID104214425,-0.624,inactive
CG44247 + veg (retired record),SID104187506,-0.497,inactive
Hacd1,SID104182780,0.387,inactive
CR32011 + CR32009 + PlexB + 1 more,SID104201349,-0.384,inactive
CR32011 + CR32009 + PlexB + 1 more,SID104204643,0.991,inactive
CG13579,SID104184007,1.3,inactive
CG13579,SID104204147,0.0309,inactive
CG1924,SID104199615,-0.472,inactive
CG1924,SID104203447,4.28,active
mri,SID104188051,-0.907,inactive
mri,SID104206331,0.208,inactive
Scamp,SID104200078,0.235,inactive
Scamp,SID104208296,-0.349,inactive
CG6230,SID104181781,0.944,inactive
Toll-6,SID104191096,-0.841,inactive
Toll-6,SID104217429,6.65,active
Shal,SID104189417,-0.128,inactive
Shal,SID104191075,-0.582,inactive
por,SID104208421,0.314,inactive
por,SID104217402,0.319,inactive
CG7530,SID104204022,4.4,active
CG7530,SID104217159,-0.28,inactive
Or65a,SID104188600,-0.404,inactive
Or65a,SID104217184,0.181,inactive
GAA1,SID104198059,-0.382,inactive
GAA1,SID104217353,-1.24,inactive
ed,SID104180142,-1.22,inactive
ed,SID104180231,1,inactive
ed,SID104180270,0.343,inactive
TRAM,SID104197970,-0.18,inactive
TRAM,SID104198443,-0.32,inactive
mgl,SID104197615,0.0965,inactive
mgl,SID104197651,2.16,active
Eglp2,SID104184086,-0.994,inactive
Eglp2,SID104217266,0.486,inactive
GluRIB,SID104190969,-1.64,active
GluRIB,SID104204010,-1.5,active
CG3603,SID104198109,0.156,inactive
CG3603,SID104217365,0.627,inactive
CG31999,SID104196923,-0.0263,inactive
CG31999,SID104196925,-0.191,inactive
PIG-A,SID104186774,-0.117,inactive
Acp95EF + Spase22-23,SID104193894,1.95,active
slv,SID104187477,0.726,inactive
Nup62,SID104186762,1.83,active
Tsp96F,SID104193939,2.54,active
Tsp96F,SID104217468,0.018,inactive
Tsp42Er,SID104185975,2,active
Ca-alpha1D,SID104183076,-0.29,inactive
Ca-alpha1D,SID104217254,-0.106,inactive
cni,SID104183304,0.377,inactive
NPFR,SID104191965,-0.603,inactive
Inx3,SID104194649,0.362,inactive
Inx3,SID104203003,-0.941,inactive
Spase12 + CG2006,SID104194108,1,inactive
G6P,SID104180206,1.01,inactive
G6P,SID104205665,-0.535,inactive
Tre1,SID104198518,-1.19,inactive
Tre1,SID104206788,-0.00536,inactive
VhaM9.7-a,SID104188081,-0.103,inactive
VhaM9.7-a,SID104206884,-0.303,inactive
Tsp66A + CG42660 + CG42661,SID104190025,2.48,active
CG33673,SID104179876,-0.38,inactive
CG33673,SID104216513,0.628,inactive
Ir64a,SID104189552,-0.735,inactive
Ir64a,SID104217267,-0.668,inactive
Atg9,SID104215693,-0.0912,inactive
Atg9,SID104215694,0.0743,inactive
Tsp42Ee,SID104185739,1.9,active
Tsp42Ee,SID104207568,1.42,inactive
CG4822,SID104180461,-0.601,inactive
CG16825,SID104182318,-0.735,inactive
CG16825,SID104217264,-0.161,inactive
fend,SID104197393,0.0707,inactive
fend,SID104197659,-0.252,inactive
CG42514 + CG43373,SID104205143,2.03,active
Ncc69,SID104190204,-0.281,inactive
Ncc69,SID104202799,-0.114,inactive

16 successive entries from above:
gene,PubChem SID,mean ATP z-score,Outcome
CG7530,SID104217159,-0.28,inactive
Or65a,SID104188600,-0.404,inactive
Or65a,SID104217184,0.181,inactive
GAA1,SID104198059,-0.382,inactive
GAA1,SID104217353,-1.24,inactive
ed,SID104180142,-1.22,inactive
ed,SID104180231,1,inactive
ed,SID104180270,0.343,inactive
TRAM,SID104197970,-0.18,inactive
TRAM,SID104198443,-0.32,inactive
mgl,SID104197615,0.0965,inactive
mgl,SID104197651,2.16,active
Eglp2,SID104184086,-0.994,inactive
Eglp2,SID104217266,0.486,inactive
GluRIB,SID104190969,-1.64,active
GluRIB,SID104204010,-1.5,active
